Data reported in publication PMC7862700.
This is a selection; strong and weak results do not stand in their true shares. At the low end of the ranking the order means little.

Target: T1, ELK3 (UniProt P41970)
T1 sequence: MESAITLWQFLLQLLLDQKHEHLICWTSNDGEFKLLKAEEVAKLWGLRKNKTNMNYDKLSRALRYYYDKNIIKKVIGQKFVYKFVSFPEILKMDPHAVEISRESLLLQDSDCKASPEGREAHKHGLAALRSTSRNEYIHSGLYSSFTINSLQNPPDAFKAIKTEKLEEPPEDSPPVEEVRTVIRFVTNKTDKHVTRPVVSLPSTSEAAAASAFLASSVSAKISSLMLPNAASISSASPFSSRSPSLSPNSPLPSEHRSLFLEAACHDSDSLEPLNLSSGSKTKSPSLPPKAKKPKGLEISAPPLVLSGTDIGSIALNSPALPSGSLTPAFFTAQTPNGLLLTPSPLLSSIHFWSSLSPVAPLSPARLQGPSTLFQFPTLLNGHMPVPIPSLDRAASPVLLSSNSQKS
Test: DAPPL (digital affinity profiling via proximity ligation, sequencing)
Conditions: 10 mM Tris-HCl pH 7.5, 50 mM NaCl, 1 mM DTT, 4% glycerol, room temperature, 30 min; GST-TFs on glutathione beads, 16-mer random dsDNA library, 0.1% …; high values mean tight binding; double strand, one strand shown; scale: fold enrichment (6-mer frequency, TF over GST control)

Sequence | binding signal
CGTCAT | 0.961
TAAGGC | 0.921
ACAAGA | 0.979
GCGCGT | 0.74
TTGAGA | 0.943
CGCCCC | 1.18
AGAGCT | 0.809
CTAGGG | 0.848
CTGTAG | 0.874
AGATCT | 1.07
TGGATT | 0.998
GTTGTC | 0.707
CGAAGG | 0.962
CGCCCA | 1.04
TATGGG | 1.18
ATGGGA | 0.804
TGCAGA | 0.963
GTGCCG | 0.956
CATCCA | 0.964
GGCTAA | 1.02

Sequence | binding signal
AGCAGA | 0.926
GTAGTT | 0.992
GGCACC | 0.84
GATGGA | 0.873
CTGGCG | 0.845
TAGTTG | 0.977
GCGACA | 0.911
ATTGTG | 0.907
TCGAAG | 0.914
CACGGC | 0.967
AGGGAA | 0.903
CACACC | 0.975
CTGACC | 1.33
AGGCAC | 0.821
GCGTTG | 0.784
TGTGGC | 0.925
ATAGTC | 0.912
AGTTTG | 0.931
CGCTGT | 0.865

Target: T2, ETS2 (UniProt P15036)
T2 sequence: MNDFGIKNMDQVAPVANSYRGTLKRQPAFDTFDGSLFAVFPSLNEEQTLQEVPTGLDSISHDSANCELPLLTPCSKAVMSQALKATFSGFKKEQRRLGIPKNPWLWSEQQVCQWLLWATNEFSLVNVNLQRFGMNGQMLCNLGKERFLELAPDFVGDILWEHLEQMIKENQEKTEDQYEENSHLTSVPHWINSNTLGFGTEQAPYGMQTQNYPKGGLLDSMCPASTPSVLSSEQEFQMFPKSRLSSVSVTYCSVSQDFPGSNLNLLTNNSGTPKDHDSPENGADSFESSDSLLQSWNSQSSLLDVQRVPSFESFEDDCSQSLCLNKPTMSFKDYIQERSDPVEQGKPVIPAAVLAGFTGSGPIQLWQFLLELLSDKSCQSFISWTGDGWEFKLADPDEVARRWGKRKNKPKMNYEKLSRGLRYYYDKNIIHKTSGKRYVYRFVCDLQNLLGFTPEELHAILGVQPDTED
Test: as above
Conditions: 10 mM Tris-HCl pH 7.5, 50 mM NaCl, 1 mM DTT, 4% glycerol, room temperature, 30 min; GST-TFs on glutathione beads, 16-mer random dsDNA library, 0.1% …; high values mean tight binding; double strand, one strand shown; scale: fold enrichment (6-mer frequency, TF over GST control)

Sequence | binding signal
CGTCAT | 1.03
TAAGGC | 0.903
ACAAGA | 0.986
GCGCGT | 0.809
TTGAGA | 0.869
CGCCCC | 1.05
AGAGCT | 0.976
CTAGGG | 0.932
CTGTAG | 0.891
AGATCT | 0.979
TGGATT | 1.03
GTTGTC | 0.881
CGAAGG | 0.979
CGCCCA | 1.04
TATGGG | 1.15
ATGGGA | 0.896
TGCAGA | 0.98
GTGCCG | 0.836
CATCCA | 0.937
GGCTAA | 0.998

Sequence | binding signal
AGCAGA | 0.935
GTAGTT | 1.02
GGCACC | 0.818
GATGGA | 0.895
CTGGCG | 0.769
TAGTTG | 0.911
GCGACA | 0.996
ATTGTG | 0.968
TCGAAG | 0.988
CACGGC | 0.972
AGGGAA | 0.996
CACACC | 0.983
CTGACC | 1.38
AGGCAC | 0.88
GCGTTG | 0.894
TGTGGC | 0.94
ATAGTC | 0.915
AGTTTG | 0.966
CGCTGT | 0.947

Target: T3, ETV3 (UniProt P41162-2)
T3 sequence: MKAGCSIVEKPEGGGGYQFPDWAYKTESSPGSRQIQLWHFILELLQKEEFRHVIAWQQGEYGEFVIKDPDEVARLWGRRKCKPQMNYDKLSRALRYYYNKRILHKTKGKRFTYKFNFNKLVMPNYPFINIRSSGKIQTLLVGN
Test: as above
Conditions: 10 mM Tris-HCl pH 7.5, 50 mM NaCl, 1 mM DTT, 4% glycerol, room temperature, 30 min; GST-TFs on glutathione beads, 16-mer random dsDNA library, 0.1% …; high values mean tight binding; double strand, one strand shown; scale: fold enrichment (6-mer frequency, TF over GST control)

Sequence | binding signal
CGTCAT | 0.923
TAAGGC | 0.933
ACAAGA | 0.926
GCGCGT | 0.836
TTGAGA | 0.878
CGCCCC | 1.16
AGAGCT | 0.957
CTAGGG | 0.929
CTGTAG | 0.996
AGATCT | 0.975
TGGATT | 0.952
GTTGTC | 0.832
CGAAGG | 0.889
CGCCCA | 0.994
TATGGG | 1.17
ATGGGA | 0.904
TGCAGA | 0.943
GTGCCG | 0.918
CATCCA | 0.993
GGCTAA | 0.979

Sequence | binding signal
AGCAGA | 0.965
GTAGTT | 0.981
GGCACC | 0.894
GATGGA | 0.883
CTGGCG | 0.812
TAGTTG | 0.951
GCGACA | 1.01
ATTGTG | 0.898
TCGAAG | 0.854
CACGGC | 0.943
AGGGAA | 0.952
CACACC | 0.99
CTGACC | 1.4
AGGCAC | 0.905
GCGTTG | 0.873
TGTGGC | 0.956
ATAGTC | 0.894
AGTTTG | 0.994
CGCTGT | 0.987
